Taken from: PubChem BioAssay AID1259316 (Drosophila RNAi Screening Center, 2017)
The deposit covers 95 reagents; below is an unselected part. 12 of them (13%) count as active. 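Calls follow set 1 z-scores only; applying the same cut-off to set 2 alone does not give the same calls.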 Not stated in the record: the amount of reagent.

Test: 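Genes affecting cellular ATP levels after a toxic manganese dose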
Cell system: Drosophila S2R+ cells
Reagents: long dsRNA against Drosophila genes
Timing: 5 days (4 days knock-down, then 1 day with metal)
Treatment: manganese chloride added to 15 mM for the last 24 hours
Read-out: 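Viability as luciferase-measured ATP after 4 days knock-down plus 24 hours in 15 mM manganese chloride; z-scores averaged across two replicates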
Direction: ATP z-score, set 1 (call basis) and ATP z-score: higher = more ATP, more viable cells under manganese
Hit rule: 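a reagent is called active when its set 1 ATP z-score exceeds 1.5 or falls below -1.5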
Calls: active = ATP shifted up or down; inactive = no clear ATP shift

Target gene	amplicon	ATP z-score, set 1 (call basis)	ATP z-score, set 2	activity call
sp3	DRSC16354	0.384	-0.146	inactive
sp3	DRSC41446	0.341	-0.175	inactive
Ctr1A	DRSC40310	-1.99	-1.83	active
Ctr1A	DRSC40902	-1.94	-1.95	active
CG6006	DRSC13137	-0.367	-0.00912	inactive
CG6006	DRSC15946	-0.303	-0.0721	inactive
MFS10	DRSC26960	0.8	0.818	inactive
MFS10	DRSC36116	-0.179	0.155	inactive
MtnA	DRSC21588	0.596	0.84	inactive
Sac1	DRSC34470	0.52	-0.124	inactive
Sac1	DRSC34471	-0.584	-0.308	inactive
